From paper PMC9640990 (Frontiers in Pharmacology, 2022)
Read-outs that look alike come from different tables or passages of the source.

Key:
in vivo = settings: male, Sprague-Dawley, rat, plasma, po, plasma ciprofloxacin, rats, intragastric CIP […] + PCE 0.72 g/kg
[1] = Tissue distribution-based herb-drug interaction study in rats (CIP i.v., PCE i.g.); assay type: in vivo; settings: male, Sprague-Dawley, rat, plasma, iv, 0.036 g/kg, plasma ciprofloxacin; for AUC(0-inf) / AUC(0-t): n=3; for k el: n=3, read-out: ke (converted)
[2] = 1990, cited from earlier work
[3] = intravenous CIP 0.036 g/kg + PCE 0.72 g/kg
[4] = intravenous CIP 0.036 g/kg alone

AUC(0-t) (in vivo; AUC 0-t): 3070 ± 633 ng·h/mL
AUC(0-inf) (in vivo; AUC 0-∞): 3110 ± 665 ng·h/mL
Cmax (in vivo; C max): 892 ± 108 ng/mL
AUC(0-inf) [1, 3]: 5060 ± 995 ng·h/mL
AUC(0-t) [1, 3]: 4720 ± 854 ng·h/mL
k el [1, 3]: 0.000144 s⁻¹
AUC(0-inf) [1, 4]: 5610 ± 662 ng·h/mL
AUC(0-t) [1, 4]: 5350 ± 686 ng·h/mL
k el [1, 4]: 0.000175 s⁻¹
Structure (SMILES): O=C(O)c1cn(C2CC2)c2cc(N3CCNCC3)c(F)cc2c1=O [CIP, ciprofloxacin]
intestinal excretion ([2]; ref Rohwedder et al.): approximately 18%
biliary excretion ([2]; ref Vance-Bryan et al.): approximately 1%
